Results: patent US20240301070A1, “IMPROVING ANTIBODY TOLERABILITY ASSOCIATED WITH INTRAVENOUS ADMINISTRATION” (BIOINVENT INTERNATIONAL AB, priority 2020, published 2024)
At least one compound was matched to its structure with a doubt left.

What was measured:
wildtype C57/BL6 mice [1] = assay: Transaminases (AST, ALT) in mouse serum; assay type: in vivo; details: 40 mg/kg, 24 h (16-24h) and 1 h pre i.v. injection of 10 mg/kg AT-130-2 IgG2a
wildtype C57/BL6 mice [2] = assay: Cytokine release in mouse serum (V-plex Proinflammatory Panel 1 Mouse kit); assay type: in vivo; details: 40 mg/kg, 24 h (16-24h) and 1 h pre i.v. injection of 10 mg/kg AT-130-2 IgG2a; data not shown
wildtype C57/BL6 mice [3] = assay: Platelet count in fresh mouse blood (Vetscan); assay type: in vivo
Protocol: Blood samples were collected from vena saphena 20 min post injection of bulk dose of anti-CD32B for instant blood count analysis. For liver enzyme and cytokine analysis, the mice were bled from the aorta under isoflurane anesthesia just prior to sacrifice. Samples for liver enzymes and cytokines were collected 1h and respectively 3h after bulk dose.
Platelet counts were analyzed in fresh blood using a Vetscan (Vetscan HM5 Abaxis, Triolab).
Blood samples were collected from vena saphena for instant blood count analysis. For serum concentrations of AT130-2, liver enzyme and cytokine analysis, the mice were bled from the aorta under isoflurane anesthesia just prior to sacrifice.
Blood samples were collected from vena saphena for instant blood count analysis.

wildtype C57/BL6 mice [4] = assay: Macroscopic IRR scoring (0-2) of mice after antibody injection; assay type: in vivo, mouse; details: for effect of premedication on IRRs / macroscopic symptoms: 10 mg/kg, 24 h and 1h pre i.v. injection of 10 mg/kg AT-130-2 IgG2a; for effect of premedication on macroscopic symptoms (IRRs) of AT-130-2 IgG2a: 40 mg/kg, 24 h (16-24h) and 1 h pre i.v. injection of 10 mg/kg AT-130-2 IgG2a; for effect of two doses of corticosteroids on macroscopic IRRs, platelet decrease and transaminase elevation: s.c. 16-24 hours and i.v. 30-60 minutes prior to antibody administration
Protocol: Six to eight weeks-old (17-20 g) female C57/BL6 and Balb C mice were obtained from Taconic or Janvier. Mice were injected i.v with mouse anti-CD32B AT-130-2 IgG2a either as a bulk dose of 200 ug/mouse or as a split-dose with 8 ug/mouse followed by 200 ug/mouse. […]
Mice were monitored post injection with regards to changes in behavior and macroscopic symptoms such as isolation, mobility, and fur condition. Macroscopic IRRs scoring system of 0-2 was set up based on the observations.
These premedications were given i.p 1h prior to injection i.v of mouse anti-CD32B AT-130-2 IgG2a as a bulk dose of 200 ug/mouse. […]
Mice were monitored post injection with regard to changes in behavior and macroscopic symptoms such as isolation, mobility, and fur condition. Macroscopic IRRs scoring system of 0-2 was set up based on the observations: […]

SMILES | effect of premedication on transaminases increase (wildtype C57/BL6 mice [1]) | effect of premedication on transient cytokine release (wildtype C57/BL6 mice [2]) | effect of premedication on decrease in platelet count (wildtype C57/BL6 mice [3]; 10 mg/kg, 24 h and 1h pre i.v. injection of 10 mg/kg AT-130-2 IgG2a) | effect of premedication on decrease in platelet count (wildtype C57/BL6 mice [3]; 10 mg/kg, 24 h and 1h pre i.v. injection of 10 mg/kg AT-130-2 IgG2a, listed as Betamethasone) | effect of premedication on decrease in platelet count (wildtype C57/BL6 mice [3]; 40 mg/kg, 24 h (16-24h) and 1 h pre i.v. injection of 10 mg/kg AT-130-2 IgG2a) | effect of premedication on IRRs / macroscopic symptoms (wildtype C57/BL6 mice [4]) | effect of premedication on IRRs / macroscopic symptoms (wildtype C57/BL6 mice [4]; listed as Betamethasone) | effect of premedication on macroscopic symptoms (IRRs) of AT-130-2 IgG2a (wildtype C57/BL6 mice [4]) | effect of premedication on macroscopic symptoms (IRRs) of AT-130-2 IgG2a (wildtype C57/BL6 mice [4]; listed as betapred) | effect of two doses of corticosteroids on macroscopic IRRs, platelet decrease and transaminase elevation (wildtype C57/BL6 mice [4]) | effect of premedication on IRRs (wildtype C57/BL6 mice [4]; two 40 mg/kg doses as printed (second mention in FIG. 7G legend))
C[C@H]1C[C@H]2[C@@H]3CCC4=CC(=O)C=C[C@]4(C)[C@@]3(F)[C@@H](O)C[C@]2(C)[C@@]1(O)C(=O)CO [betamethasone] | reduced | inhibited | half of the mice | did not completely inhibited | completely inhibited | half of the mice | did not completely inhibited | completely inhibited | completely block IRRs | inhibits | partly block IRRs
C[C@@H]1C[C@H]2[C@@H]3CCC4=CC(=O)C=C[C@]4(C)[C@@]3(F)[C@@H](O)C[C@]2(C)[C@@]1(O)C(=O)CO [dexamethasone] | – | – | – | – | – | – | – | – | – | inhibits | –
